Experimental data taken from patent US20240325353A1, “COMPOUND FOR TREATMENT OF COGNITIVE DISORDERS” (Syndesi Therapeutics SA, priority 2021, published 2024).
The source gives many values for each of these; only a part stands here.

System: brain activity (BOLD signal)
Assay: pharmaco-MRI (BOLD) neuroimaging study in conscious rats
Assay type: in vivo, rat
Settings: 20-30 min post injection
Method: Test Substance, Reference Substance(s), and Vehicle: the compound of example 1 test substance for dose-dependent change in BOLD signal was provided by Syndesi along with the formula for the vehicle.
Subjects: Forty-eight male Sprague Dawley rats weighing ca 275-300 g were obtained from Charles River Laboratories (Wilmington, MA, USA). Rat were maintained on a 12:12 hour light:dark cycle with a lights on at 0700 hours and allowed access to food and water ad libitum. All rats were acquired and cared for in accordance with the guidelines published in the Guide for the Care and Use of Laboratory Animals (National Institutes of Health Publications No. 85-23, Revised 1985) and adhered to the National Institutes of Health and the American Association for Laboratory Animal Science guidelines.
Acclimation: To reduce the stress associated with head restraint, rats were acclimated to the restraining system (head holder and body tube) one week prior to their actual imaging session. The design of the restraining system (Animal Imaging Research, Holden MA, USA) included a padded head support obviating the need for ear bars helping to reduce animal discomfort while minimizing motion artifact. These acclimation sessions were run each day for 4-5 consecutive days. Rats were briefly anesthetized with 2-3% isoflurane while being secured into the head holder. The forepaws were secured with tape. When fully conscious, the imaging system is placed into a black opaque box “mock scanner” for 30 min with a tape-recording of the MRI pulse sequence to simulate the bore of the magnet and the imaging protocol. A significant decline in respiration, heart rate, motor movements, and plasma corticosterone has been measured when the first and last acclimation periods are compared (King et al., 2005). The reduction in autonomic and somatic measures of arousal and stress improve the signal resolution and quality of the images.
Image Acquisition: Animals were scanned at 300 MHz using a quadrature transmit/receive volume coil built into the rat head holder and restraining system for awake animal imaging (Animal Imaging Research, Holden, MA, USA). The design of the coil provided complete coverage of the brain from olfactory bulbs to brain stem with excellent B1 field homogeneity. Experiments were conducted using a Bruker Biospec 7.0 T/20-cm USR horizontal magnet (Bruker, Billerica, MA, USA) and a 20-G/cm magnetic field gradient insert (ID=12 cm) capable of a 120-μs rise time. At the beginning of each imaging session, a high-resolution anatomical data set was collected using the RARE pulse sequence [22 slice; 1.0 mm; field of view (FOV) 3.0 cm; matrix size 256×256; repetition time (TR) 2.5 s; echo time (TE) 12 ms; NEX 2; 3 min acquisition time]. Functional images were acquired using a multi-slice half-Fourier acquisition single-shot turbo spin echo (HASTE) pulse sequence. Bruker Paravision automatically finds the basic frequency, shims, power requirements for 90° and 180° pulses and sets the receiver gain. A single scanning session acquired 22 slices, 1.0 mm thick, every 6.0 s (TR), using an effective TE of 48 ms, FOV 3.0 cm, matrix size 96×96, NEX 1, and repeated 450 times for a total scanning time of 45 min. The in-plane pixel resolution was 312 μm2.
Data Processing: Data are coregistered to a mean functional image using SPM8's coregistrational code with the following parameters: Quality: 0.97, Smoothing: 0.35 mm, Separation: 0.5 mm. Gaussian smoothing was performed with a FWHM of 0.8 mm. Images were aligned and registered to the 3D rat brain atlas, segmented and labeled with 171 discrete anatomical regions. The alignment process was facilitated by an interactive graphic user interface. The registration process involved translation, rotation and scaling independently and in all three dimensions. Matrices that transformed each subject's anatomy were used to embed each slice within the atlas. […]

O=C1C[C@H](c2cc(F)c(F)c(F)c2)CN1Cn1ncnc1Cl [compound of example 1, (4R)-1-[(5-chloro-1H-1,2,4-triazol-1-yl)methyl]-4-(3,4,5-trifluorophenyl)pyrrolidin-2-one]
median number of positive voxels (positive BOLD volume of activation) (parvicellular reticular n., 1.0 mg/kg i.p.): 4 | median number of positive voxels (positive BOLD volume of activation) (periolivary nucleus, 0.1 mg/kg i.p.): 3 | median number of positive voxels (positive BOLD volume of activation) (periolivary nucleus, 0.3 mg/kg i.p.): 12 | median number of positive voxels (positive BOLD volume of activation) (periolivary nucleus, 1.0 mg/kg i.p.): 0 | median number of positive voxels (positive BOLD volume of activation) (posterior hypothalamic area, 0.1 mg/kg i.p.): 19 | median number of positive voxels (positive BOLD volume of activation) (posterior hypothalamic area, 0.3 mg/kg i.p.): 15 | median number of positive voxels (positive BOLD volume of activation) (posterior hypothalamic area, 1.0 mg/kg i.p.): 0 | median number of positive voxels (positive BOLD volume of activation) (posterior thalamic nucleus, 0.1 mg/kg i.p.): 11 | median number of positive voxels (positive BOLD volume of activation) (posterior thalamic nucleus, 0.3 mg/kg i.p.): 0 | median number of positive voxels (positive BOLD volume of activation) (posterior thalamic nucleus, 1.0 mg/kg i.p.): 0 | median number of positive voxels (positive BOLD volume of activation) (premammillary nucleus, 0.1 mg/kg i.p.): 1 | median number of positive voxels (positive BOLD volume of activation) (premammillary nucleus, 0.3 mg/kg i.p.): 3 | median number of positive voxels (positive BOLD volume of activation) (premammillary nucleus, 1.0 mg/kg i.p.): 0 | median number of positive voxels (positive BOLD volume of activation) (prerubral field, 0.1 mg/kg i.p.): 1 | median number of positive voxels (positive BOLD volume of activation) (prerubral field, 0.3 mg/kg i.p.): 0 | median number of positive voxels (positive BOLD volume of activation) (prerubral field, 1.0 mg/kg i.p.): 0 | median number of positive voxels (positive BOLD volume of activation) (primary motor ctx, 0.1 mg/kg i.p.): 119 | median number of positive voxels (positive BOLD volume of activation) (primary somatosensory ctx barrel field, 0.1 mg/kg i.p.): 29 | median number of positive voxels (positive BOLD volume of activation) (primary somatosensory ctx barrel field, 0.3 mg/kg i.p.): 7 | median number of positive voxels (positive BOLD volume of activation) (primary somatosensory ctx barrel field, 1.0 mg/kg i.p.): 0 | median number of positive voxels (positive BOLD volume of activation) (primary somatosensory ctx forelimb, 0.1 mg/kg i.p.): 39 | median number of positive voxels (positive BOLD volume of activation) (primary somatosensory ctx forelimb, 0.3 mg/kg i.p.): 9 | median number of positive voxels (positive BOLD volume of activation) (primary somatosensory ctx forelimb, 1.0 mg/kg i.p.): 3 | median number of positive voxels (positive BOLD volume of activation) (primary somatosensory ctx jaw, 0.1 mg/kg i.p.): 64 | median number of positive voxels (positive BOLD volume of activation) (primary somatosensory ctx jaw, 0.3 mg/kg i.p.): 20 | median number of positive voxels (positive BOLD volume of activation) (primary somatosensory ctx jaw, 1.0 mg/kg i.p.): 6 | median number of positive voxels (positive BOLD volume of activation) (primary somatosensory ctx shoulder, 0.1 mg/kg i.p.): 2 | median number of positive voxels (positive BOLD volume of activation) (primary somatosensory ctx shoulder, 0.3 mg/kg i.p.): 0 | median number of positive voxels (positive BOLD volume of activation) (primary somatosensory ctx shoulder, 1.0 mg/kg i.p.): 0 | median number of positive voxels (positive BOLD volume of activation) (primary somatosensory ctx trunk, 0.1 mg/kg i.p.): 2 | median number of positive voxels (positive BOLD volume of activation) (primary somatosensory ctx upper lip, 0.1 mg/kg i.p.): 39 | median number of positive voxels (positive BOLD volume of activation) (primary somatosensory ctx upper lip, 0.3 mg/kg i.p.): 5 | median number of positive voxels (positive BOLD volume of activation) (primary somatosensory ctx upper lip, 1.0 mg/kg i.p.): 0 | median number of positive voxels (positive BOLD volume of activation) (reuniens nucleus, 0.1 mg/kg i.p.): 14 | median number of positive voxels (positive BOLD volume of activation) (reuniens nucleus, 0.3 mg/kg i.p.): 11 | median number of positive voxels (positive BOLD volume of activation) (reuniens nucleus, 1.0 mg/kg i.p.): 0 | median number of positive voxels (positive BOLD volume of activation) (root of trigeminal nerve, 0.1 mg/kg i.p.): 22 | median number of positive voxels (positive BOLD volume of activation) (root of trigeminal nerve, 0.3 mg/kg i.p.): 29 | median number of positive voxels (positive BOLD volume of activation) (root of trigeminal nerve, 1.0 mg/kg i.p.): 6 | median number of positive voxels (positive BOLD volume of activation) (secondary somatosensory ctx, 0.1 mg/kg i.p.): 16 | median number of positive voxels (positive BOLD volume of activation) (substantia innominata, 0.1 mg/kg i.p.): 0 | median number of positive voxels (positive BOLD volume of activation) (substantia innominata, 0.3 mg/kg i.p.): 0 | median number of positive voxels (positive BOLD volume of activation) (substantia innominata, 1.0 mg/kg i.p.): 0 | median number of positive voxels (positive BOLD volume of activation) (subthalamic nucleus, 0.1 mg/kg i.p.): 0 | median number of positive voxels (positive BOLD volume of activation) (supraoptic nucleus, 0.1 mg/kg i.p.): 0 | median number of positive voxels (positive BOLD volume of activation) (supraoptic nucleus, 0.3 mg/kg i.p.): 2 | median number of positive voxels (positive BOLD volume of activation) (supraoptic nucleus, 1.0 mg/kg i.p.): 0 | median number of positive voxels (positive BOLD volume of activation) (temporal ctx, 0.1 mg/kg i.p.): 5 | median number of positive voxels (positive BOLD volume of activation) (temporal ctx, 0.3 mg/kg i.p.): 1 | median number of positive voxels (positive BOLD volume of activation) (temporal ctx, 1.0 mg/kg i.p.): 0 | median number of positive voxels (positive BOLD volume of activation) (ventral pallidum, 0.1 mg/kg i.p.): 9 | median number of positive voxels (positive BOLD volume of activation) (ventral pallidum, 0.3 mg/kg i.p.): 3 | median number of positive voxels (positive BOLD volume of activation) (ventral pallidum, 1.0 mg/kg i.p.): 0 | median number of positive voxels (positive BOLD volume of activation) (ventromedial thalamic nucleus, 0.1 mg/kg i.p.): 10 | median number of positive voxels (positive BOLD volume of activation) (ventromedial thalamic nucleus, 0.3 mg/kg i.p.): 2 | median number of positive voxels (positive BOLD volume of activation) (ventromedial thalamic nucleus, 1.0 mg/kg i.p.): 0 | median number of positive voxels (positive BOLD volume of activation) (visual 2 ctx, 0.1 mg/kg i.p.): 51 | median number of positive voxels (positive BOLD volume of activation) (visual 2 ctx, 0.3 mg/kg i.p.): 21 | median number of positive voxels (positive BOLD volume of activation) (visual 2 ctx, 1.0 mg/kg i.p.): 0
